Values are relative to the signal before dosing, not to a vehicle control; the signal also falls without drug.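 Fibroblast labels denote human fibroblasts, mainly primary ones from uterus (C12385, HUF), lung (H6013), bone (Hs27A), adrenal (HADF) and skin (WS1), plus mammary HMF and breast cancer-associated Hs343T. Cancer cells are basal-like or mesenchymal-like triple-negative breast cancer lines. A hit is a response shift exceeding 3x replicate standard deviation. The tissue of the other fibroblasts is not given here.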
Test system: MDAMB436
Experiment: relative JC-1 red fluorescence (viability) vs pre-drug, coculture with fibroblast (fraction); higher = more viable cancer cells
Protocol: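 JC-1 labelled TNBC cells cocultured 1:1 (1,500 cells each) with CellTrace Violet stained primary or stromal fibroblasts in 384-well plates in FluoroBrite medium, treated with one of 42 anticancer drugs at 0.1, 1, 10 or 100 uM. JC-1 red fluorescence (mitochondrial integrity in cancer cells only) was read by plate reader every 8 h for 72 h. Values are normalised to each well's pre-drug value. The stock of one drug was tenfold lower, so its dose labels may be too high.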

CCN(CC)CCNC(=O)c1c(C)[nH]c(/C=C2\C(=O)Nc3ccc(F)cc32)c1C [Sunitinib]
relative JC-1 red fluorescence
Details | 8 h | 16 h | 24 h | 32 h | 40 h | 48 h | 56 h | 64 h | 72 h
10 µM, coculture fibroblast: C12385 | 0.797 | 0.747 | 0.707 | 0.641 | 0.58379 | 0.545 | 0.5064 | 0.467 | 0.45
10 µM, coculture fibroblast: H6013 | 0.803 | 0.774 | 0.759 | 0.738 | 0.718 | 0.708 | 0.694 | 0.662 | 0.617
10 µM, coculture fibroblast: H6019 | 0.813 | 0.796 | 0.79 | 0.747 | 0.73 | 0.729 | 0.708 | 0.6811 | 0.6549
10 µM, coculture fibroblast: H6076 | 0.761 | 0.653 | 0.604 | 0.555 | 0.513 | 0.471 | 0.453 | 0.431 | 0.415
10 µM, coculture fibroblast: H6231 | 0.772 | 0.653 | 0.583 | 0.478 | 0.422 | 0.355 | 0.322 | 0.282 | 0.256
10 µM, coculture fibroblast: HADF | 0.754 | 0.724 | 0.668 | 0.625 | 0.5881 | 0.573 | 0.527 | 0.507 | 0.449
10 µM, coculture fibroblast: HCFa | 0.885 | 0.84 | 0.798 | 0.78 | 0.773 | 0.768 | 0.728 | 0.718 | 0.666
10 µM, coculture fibroblast: HCPF | 0.776 | 0.731 | 0.681 | 0.599 | 0.55 | 0.502 | 0.45 | 0.419 | 0.393
10 µM, coculture fibroblast: HHSteC | 0.865 | 0.806 | 0.772 | 0.725 | 0.692 | 0.66 | 0.606 | 0.565 | 0.516
10 µM, coculture fibroblast: HMF | 0.739 | 0.645 | 0.572 | 0.522 | 0.468 | 0.414 | 0.378 | 0.342 | 0.324
10 µM, coculture fibroblast: HPFa | 0.756 | 0.813 | 0.754 | 0.73 | 0.79 | 0.787 | 0.776 | 0.69 | 0.674
10 µM, coculture fibroblast: HUF | 0.8518 | 0.803 | 0.767 | 0.71 | 0.66 | 0.615 | 0.581 | 0.555 | 0.535
10 µM, coculture fibroblast: Hs5 | 0.724 | 0.666 | 0.629 | 0.552 | 0.527 | 0.463 | 0.4567 | 0.419 | 0.398
10 µM, coculture fibroblast: Hs27A | 0.78 | 0.867 | 0.813 | 0.807 | 0.787 | 0.837 | 0.851 | 0.834 | 0.772
10 µM, coculture fibroblast: Hs343T | 0.693 | 0.626 | 0.573 | 0.517 | 0.475 | 0.424 | 0.394 | 0.376 | 0.349
10 µM, coculture fibroblast: WS1 | 0.784 | 0.763 | 0.756 | 0.6637 | 0.60752 | 0.569 | 0.548 | 0.511 | 0.486
100 µM, coculture fibroblast: C12385 | 0.577 | 0.387 | 0.375 | 0.312 | 0.281 | 0.284 | 0.259 | 0.238 | 0.224
100 µM, coculture fibroblast: H6013 | 0.508 | 0.463 | 0.45 | 0.442 | 0.436 | 0.468 | 0.422 | 0.39 | 0.339
100 µM, coculture fibroblast: H6019 | 0.499 | 0.427 | 0.431 | 0.384 | 0.365 | 0.365 | 0.345 | 0.325 | 0.302
100 µM, coculture fibroblast: H6076 | 0.407 | 0.345 | 0.368 | 0.31 | 0.263 | 0.242 | 0.23 | 0.227 | 0.227
100 µM, coculture fibroblast: H6231 | 0.579 | 0.383 | 0.32 | 0.26 | 0.19265 | 0.169 | 0.163 | 0.16 | 0.165
100 µM, coculture fibroblast: HADF | 0.559 | 0.441 | 0.44 | 0.423 | 0.404 | 0.426 | 0.381 | 0.353 | 0.313
100 µM, coculture fibroblast: HCFa | 0.631 | 0.575 | 0.565 | 0.574 | 0.553 | 0.5849 | 0.518 | 0.51 | 0.438
100 µM, coculture fibroblast: HCPF | 0.449 | 0.418 | 0.425 | 0.374 | 0.313 | 0.265 | 0.245 | 0.239 | 0.224
100 µM, coculture fibroblast: HHSteC | 0.539 | 0.481 | 0.465 | 0.453 | 0.432 | 0.46 | 0.4009 | 0.386 | 0.326
100 µM, coculture fibroblast: HMF | 0.482 | 0.44 | 0.465 | 0.45 | 0.412 | 0.371 | 0.357 | 0.344 | 0.32
100 µM, coculture fibroblast: HPFa | 0.611 | 0.4515 | 0.434 | 0.419 | 0.405 | 0.425 | 0.387 | 0.364 | 0.322
100 µM, coculture fibroblast: HUF | 0.575 | 0.396 | 0.377 | 0.325 | 0.287 | 0.27 | 0.246 | 0.219 | 0.204
100 µM, coculture fibroblast: Hs5 | 0.449 | 0.392 | 0.392 | 0.363 | 0.304 | 0.251 | 0.231 | 0.221 | 0.216
100 µM, coculture fibroblast: Hs27A | 0.503 | 0.353 | 0.372 | 0.373 | 0.369 | 0.417 | 0.378 | 0.369 | 0.347
100 µM, coculture fibroblast: Hs343T | 0.388 | 0.334 | 0.336 | 0.306 | 0.271 | 0.248 | 0.246 | 0.242 | 0.256
100 µM, coculture fibroblast: WS1 | 0.519 | 0.386 | 0.381 | 0.326 | 0.305 | 0.314 | 0.285 | 0.263 | 0.256

Source: the supplement of paper PMC6078165
